Measurements reported in the supplement of paper PMC12823440, “Inhibitors supercharge kinase turnover through native proteolytic circuits” (Nature, 2025).
Counter-ions that a name gives are not always drawn. This is one part of the list. Hit calls seldom repeat between salt and free forms of one compound.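 Kinases were expressed as nanoluciferase fusions in K562 cells and luminescence was read every 4 h between 2 and 18 h as percent of control, DMSO set to 100% and a positive control to 0%. A time point counts as decreased when the signal drops significantly (2 sigma). The hit call is the authors' own, does not follow from the count of time points alone, and its rule is not shown.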

By UniProt entry, the sequences of proteins in these tests, tags left out. Where a name states a change or a piece, a line headed by the entry shows the natural chain unless it says otherwise.
UniProt Q8IWU2: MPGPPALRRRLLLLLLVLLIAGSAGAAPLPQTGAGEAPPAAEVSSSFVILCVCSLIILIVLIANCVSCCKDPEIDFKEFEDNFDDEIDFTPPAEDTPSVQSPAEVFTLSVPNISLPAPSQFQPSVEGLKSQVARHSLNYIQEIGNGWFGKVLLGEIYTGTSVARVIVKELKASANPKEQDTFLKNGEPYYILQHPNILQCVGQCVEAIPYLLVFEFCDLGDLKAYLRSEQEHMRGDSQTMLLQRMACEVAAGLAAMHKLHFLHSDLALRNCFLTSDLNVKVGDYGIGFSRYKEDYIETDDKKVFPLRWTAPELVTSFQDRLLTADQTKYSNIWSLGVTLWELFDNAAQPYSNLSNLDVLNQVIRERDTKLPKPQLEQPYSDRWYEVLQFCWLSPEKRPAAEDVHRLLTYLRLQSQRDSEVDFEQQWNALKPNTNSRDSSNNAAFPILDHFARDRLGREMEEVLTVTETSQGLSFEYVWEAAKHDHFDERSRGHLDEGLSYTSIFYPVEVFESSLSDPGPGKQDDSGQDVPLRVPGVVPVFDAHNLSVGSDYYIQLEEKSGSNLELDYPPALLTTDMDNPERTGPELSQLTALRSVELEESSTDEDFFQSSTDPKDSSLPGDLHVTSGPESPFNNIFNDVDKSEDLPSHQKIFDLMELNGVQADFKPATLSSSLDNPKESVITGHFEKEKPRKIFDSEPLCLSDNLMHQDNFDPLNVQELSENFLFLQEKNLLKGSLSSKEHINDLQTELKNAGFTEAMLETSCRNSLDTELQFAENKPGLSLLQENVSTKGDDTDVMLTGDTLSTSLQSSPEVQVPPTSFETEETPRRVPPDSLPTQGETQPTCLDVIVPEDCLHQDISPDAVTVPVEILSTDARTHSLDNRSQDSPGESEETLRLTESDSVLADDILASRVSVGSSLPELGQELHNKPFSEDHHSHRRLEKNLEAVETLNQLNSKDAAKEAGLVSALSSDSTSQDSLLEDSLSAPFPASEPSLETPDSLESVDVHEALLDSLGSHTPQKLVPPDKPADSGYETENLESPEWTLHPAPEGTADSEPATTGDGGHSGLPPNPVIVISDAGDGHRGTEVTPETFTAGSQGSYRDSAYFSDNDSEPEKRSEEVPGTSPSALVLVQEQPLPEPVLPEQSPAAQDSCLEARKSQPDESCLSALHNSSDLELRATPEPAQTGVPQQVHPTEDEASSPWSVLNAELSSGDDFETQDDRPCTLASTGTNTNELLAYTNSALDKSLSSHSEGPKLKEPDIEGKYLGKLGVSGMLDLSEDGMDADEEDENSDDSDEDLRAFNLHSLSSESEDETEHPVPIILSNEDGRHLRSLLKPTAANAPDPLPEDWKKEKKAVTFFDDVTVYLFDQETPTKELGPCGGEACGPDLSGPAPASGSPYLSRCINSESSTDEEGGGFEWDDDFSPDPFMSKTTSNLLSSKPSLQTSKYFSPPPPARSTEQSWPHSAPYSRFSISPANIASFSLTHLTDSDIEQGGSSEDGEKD
UniProt P07948: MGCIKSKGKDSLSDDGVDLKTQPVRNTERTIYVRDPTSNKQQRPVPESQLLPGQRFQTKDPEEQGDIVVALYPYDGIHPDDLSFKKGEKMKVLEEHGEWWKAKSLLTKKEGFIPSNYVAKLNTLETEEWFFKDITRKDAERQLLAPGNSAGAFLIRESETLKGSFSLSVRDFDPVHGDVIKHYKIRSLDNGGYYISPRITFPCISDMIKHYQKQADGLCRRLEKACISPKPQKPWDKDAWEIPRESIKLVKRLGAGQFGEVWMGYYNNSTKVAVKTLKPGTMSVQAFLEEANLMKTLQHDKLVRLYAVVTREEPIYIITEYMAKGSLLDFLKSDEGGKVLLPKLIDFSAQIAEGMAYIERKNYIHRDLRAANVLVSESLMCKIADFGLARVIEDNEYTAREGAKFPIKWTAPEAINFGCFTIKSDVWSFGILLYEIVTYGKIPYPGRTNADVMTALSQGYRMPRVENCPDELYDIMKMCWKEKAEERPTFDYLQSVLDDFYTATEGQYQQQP

biological target: LMTK2 (UniProt Q8IWU2); test: number of time points (of 5) at which kinase-Nluc abundance scored as decreased, DMSO-normalised (count); higher = more persistent destabilization; conditions: K562; 2-18 h

SMILES	number of time points
Nc1nc2ccc(Cl)cc2c2nc(-c3ccco3)nn12 (10 µM)	0
O=C(CSC1=NCCN1)NC1CCCCCC1 [ICCB-19 (hydrochloride)] (2.5 µM)	0
O=Nc1c(-c2c(O)[nH]c3ccc(I)cc23)[nH]c2ccccc12 [5-Iodo-indirubin-3'-monoxime] (10 µM)	0
Nc1nc(F)nc2c1ncn2[C@@H]1O[C@H](CO)[C@@H](O)[C@@H]1O [Fludarabine] (10 µM)	0
Cc1cc(=O)oc2c(C=O)c(O)ccc12 (10 µM)	0
C[C@@H]1CC[C@@H](Nc2nc(NC(C)(C)C)ncc2C(N)=O)C[C@H]1O (10 µM)	0
NC(=O)c1nc(Nc2ccccc2)sc1NC(=O)C1CCCCC1 (10 µM)	0

biological target: LYN (UniProt P07948); test: as above; conditions: K562; 2-18 h

SMILES	number of time points
FC(F)(c1ccc2ncccc2c1)c1nnc2ccc(-c3ccncc3)nn12 (10 µM)	0
COc1ccc(-c2ccc3c(N4CCOCC4)nc(N4C[C@@H](C)O[C@@H](C)C4)nc3n2)cc1CO (2.5 µM)	0
C=CC(=O)Nc1ccc(CN2C(=O)N(c3cc(OC)cc(OC)c3)Cc3cnc(Nc4ccc(N5CCN(C)CC5)cc4)nc32)cc1 (2.5 µM)	0
O=C1NC(=O)/C(=C\c2cccc(C(F)(F)F)c2)S1 (2.5 µM)	0
CN(C)C(=O)Cn1cc(-c2ccc(-c3cncc4ccccc34)cc2)cn1 (10 µM)	0
COc1ccccc1-c1cc(Nc2cccc(CS(N)(=O)=O)c2)ncn1 (10 µM)	0
C[C@@H]1COCCN1c1cc(C2([S@@](C)(=N)=O)CC2)nc(-c2ccnc3[nH]ccc23)n1 [(S)-Ceralasertib] (10 µM)	0
c1cc(-c2c[nH]c3nccc(N4CCC[C@@]5(CCCCN5)C4)c23)ncn1 (10 µM)	0
Cc1ccc2nc(NCCN)c3ncc(C)n3c2c1 (2.5 µM)	0
C=CC(=O)Nc1cccc(Nc2nc(Nc3ccc(NC4CN(CCF)C4)cc3OC)ncc2C(F)(F)F)c1 (2.5 µM)	0
COc1ncc(Cl)cc1S(=O)(=O)Nc1ccc(F)c(C#Cc2cnc(N)nc2)c1F (2.5 µM)	0
C=CC(=O)Nc1cccc(Nc2nc(Nc3ccc(N4CCN(C(C)=O)CC4)cc3OC)ncc2C(F)(F)F)c1 [Rociletinib hydrobromide] (10 µM)	0
C[C@@]1(c2ncncc2F)NC(=O)c2cc(-c3cn[nH]c3)ccc21 (10 µM)	0
Cc1[nH]c(/C=C2\C(=O)Nc3ccc(F)cc32)c(C)c1C(=O)N[C@H]1CCN(C(=O)N(C)C)C1 [Vorolanib] (10 µM)	0
NC(=O)c1ccc(-c2nc(-c3ccc4c(c3)OCCO4)c(-c3ccccn3)[nH]2)cc1 (10 µM)	0
Cc1ccc2cc(-c3c(C)ccc(C(=O)c4c(-c5ccccc5)n(C)n(-c5ccccc5)c4=O)c3N)ccc2n1 (2.5 µM)	0
OCCn1cc(-c2ccc3c(c2)CC/C3=N\O)c(-c2ccncc2)n1 (10 µM)	0
NCCNS(=O)(=O)c1cccc2c(Cl)cccc12 [A-3 (hydrochloride)] (10 µM)	0
COc1cccc(OC)c1C(=O)OCc1cc(O)ccc1O[C@@H]1O[C@H](CO)[C@@H](O)[C@H](O)[C@H]1O [Curculigoside] (10 µM)	0
CC#CC(=O)N1CC[C@@H](n2c(=O)n(-c3ccc(Oc4ccccc4)cc3)c3c(N)ncnc32)C1 [Tirabrutinib] (10 µM)	0

SMILES	number of time points
CC1=C(C(=O)O)N2C(=O)[C@@H](NC(=O)[C@H](N)C3=CCC=CC3)[C@H]2SC1 [Cephradine] (10 µM)	0
CC(C)(C)c1nc(-c2cccc(NS(=O)(=O)c3c(F)cccc3F)c2F)c(-c2ccnc(N)n2)s1 [Dabrafenib] (2.5 µM)	0
COc1cc2c(N3CCN(C(=O)Nc4ccc(OC(C)C)cc4)CC3)ncnc2cc1OCCCN1CCCCC1 [Tandutinib] (10 µM)	0
Nc1cc(C(F)(F)F)c(-c2cc(N3CCOCC3)nc(N3CCOCC3)n2)cn1 [Buparlisib (Hydrochloride)] (2.5 µM)	0
Cn1cc(-c2ccc3c(c2)CCN3C(=O)Cc2cccc(C(F)(F)F)c2)c2c(N)ncnc21 (2.5 µM)	0
O=C1NC(=O)/C(=C/c2ccc3nccnc3c2)S1 (10 µM)	0
Cn1ncc(Cl)c1-c1cc(C(=O)N[C@H](CN)Cc2ccc(F)c(F)c2)oc1Cl [Uprosertib] (10 µM)	0
COCCNc1nc2ccc(C#CC3(O)CCCCC3)cc2n1-c1ccnc(N)n1 (10 µM)	0
CC(=O)NC1CC(n2cnc(NC(=O)Cc3ccc4ccccc4c3)c2)C1 (stereo unspecified) (10 µM)	0
COc1cc(Nc2ncc(F)c(Nc3ccc4c(n3)NC(=O)C(C)(C)O4)n2)cc(OC)c1OC (10 µM)	0
C=C(CC[C@@H](C(=O)O)[C@H]1[C@H](O)C[C@@]2(C)C3=C(CC[C@]12C)[C@@]1(C)CC[C@H](OC(C)=O)C(C)(C)[C@@H]1CC3)C(C)C [Pachymic acid] (10 µM)	0
O=C(NOCC(O)CO)c1cc(Br)c(F)c(F)c1Nc1ccc(I)cc1F (stereo unspecified) (2.5 µM)	0
Nc1nc2ccc(Cl)cc2c2nc(-c3ccco3)nn12 (10 µM)	0
O=C(CSC1=NCCN1)NC1CCCCCC1 [ICCB-19 (hydrochloride)] (2.5 µM)	0
O=Nc1c(-c2c(O)[nH]c3ccc(I)cc23)[nH]c2ccccc12 [5-Iodo-indirubin-3'-monoxime] (10 µM)	0
Nc1nc(F)nc2c1ncn2[C@@H]1O[C@H](CO)[C@@H](O)[C@@H]1O [Fludarabine] (10 µM)	0
Cc1cc(=O)oc2c(C=O)c(O)ccc12 (10 µM)	0
C[C@@H]1CC[C@@H](Nc2nc(NC(C)(C)C)ncc2C(N)=O)C[C@H]1O (10 µM)	0
NC(=O)c1nc(Nc2ccccc2)sc1NC(=O)C1CCCCC1 (10 µM)	0
